Data on one substance can be found in PMC10761432.

By UniProt entry, the sequences of proteins in these tests, tags left out.
UniProt P09651: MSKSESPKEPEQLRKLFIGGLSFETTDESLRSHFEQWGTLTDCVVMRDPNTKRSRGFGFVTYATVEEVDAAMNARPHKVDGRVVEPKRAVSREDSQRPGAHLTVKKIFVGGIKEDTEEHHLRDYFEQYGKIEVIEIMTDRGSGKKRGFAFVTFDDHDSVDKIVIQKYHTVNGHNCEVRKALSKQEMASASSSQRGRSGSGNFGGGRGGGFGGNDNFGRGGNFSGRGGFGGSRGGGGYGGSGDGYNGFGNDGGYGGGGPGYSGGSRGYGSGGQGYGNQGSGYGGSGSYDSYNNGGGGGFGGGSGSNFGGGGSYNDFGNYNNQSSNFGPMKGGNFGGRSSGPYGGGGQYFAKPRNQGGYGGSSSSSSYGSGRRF
UniProt P19474: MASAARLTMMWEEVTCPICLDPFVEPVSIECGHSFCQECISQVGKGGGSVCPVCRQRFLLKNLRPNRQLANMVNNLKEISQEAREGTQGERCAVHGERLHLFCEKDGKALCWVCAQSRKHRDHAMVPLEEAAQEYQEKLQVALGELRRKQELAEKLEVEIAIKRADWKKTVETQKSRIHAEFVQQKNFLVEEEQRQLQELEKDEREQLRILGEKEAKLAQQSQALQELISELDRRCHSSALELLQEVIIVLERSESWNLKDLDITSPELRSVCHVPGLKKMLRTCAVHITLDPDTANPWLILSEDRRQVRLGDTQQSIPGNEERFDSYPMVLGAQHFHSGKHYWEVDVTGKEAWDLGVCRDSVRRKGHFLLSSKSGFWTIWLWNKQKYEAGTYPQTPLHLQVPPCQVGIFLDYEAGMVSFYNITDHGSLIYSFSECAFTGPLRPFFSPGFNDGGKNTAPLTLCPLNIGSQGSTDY

For this assay, the target named is heterogeneous nuclear ribonucleoprotein A1 (hnRNPA1) (human (endogenous in AGS)) (UniProt P09651). Description: co-IP; Pierce Crosslink Magnetic IP/Co-IP Kit; protein A/G magnetic beads pre-bound to anti-HNRNPA1, anti-Trim21 or IgG antibody, incubated with cell lysates overnight at 4 °C; low-pH elution; western blot; AGS cells, also GC cells with OIP5-AS1 silenced (interaction improved) or overexpressed (interaction reduced). On the technique in general: Immunoblotting shows a protein as a band on a membrane.

Results are given in words; binding and its absence hold for the method and conditions named. Binding seen in cells or lysates may run through a third protein. Some entries that bind do so weakly or less than the wild type.

Take “tripartite motif-containing protein 21 (TRIM21) (from UniProt P19474 1-475)”: the binding entry was “binds”.
